Several values for one entry are separate records, joined by “and”; a condition that tells them apart may be missing. Equal entries are not always repeated. The whole screen tested about 320,000 compounds, of which about 22,000 (6.9%) were called active. This list was built around the results that the source calls inconclusive (neither active nor inactive); the mix of calls is not that of the screen. Calls come from the whole dose curve; as a rule, active = well fitted inhibition curve with a large enough effect; inconclusive = small, poorly fitted or top-dose-only effect, or another doubt; inactive = no such curve, though single readings can be large or run the other way. Potencies beside an inconclusive call are fits to weak or partial responses and may not hold up.
Assay: Primary qHTS for delayed death inhibitors of the malarial parasite plastid, 96 hour incubation
Conditions: P. falciparum luciferase reporter growth; series mostly up to 28.7 µM
Summary of the method: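 Readout is luminescence from an integrated firefly luciferase in P. falciparum. Red cells, 2% hematocrit and 0.05% parasitemia final, were cultured with compound through two parasite generations (96 hours) at 37 C, 5% CO2.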
Potency is the fitted concentration of half-maximal effect.

Row | Structure (SMILES) | Potency
1 | CCOC(=O)CC(=O)CSc1nc2cc(C)ccc2cc1C | active: 13.1 µM
2 | COc1ccc(C(c2c[nH]c3ccccc23)c2c[nH]c3ccccc23)cc1O | inconclusive: 18.5 µM [inhibitor, single point]
3 | COc1ccc(-n2nnnc2/C=C\Nc2ccccc2C(=O)c2ccccc2)cc1 | active: 8.28 µM
4 | COc1ccc(-n2ccnc2CN2CCN(C3CCCC3)C(CCO)C2)cc1 (stereo unspecified) | inactive
5 | Oc1ccccc1N=Nc1nc(-c2ccccc2)c(-c2ccccc2)[nH]1 | active: 2.08 µM
6 | Cc1csc(NC(=O)CCC(=O)N(CC(=O)NC2CCCC2)c2ccccc2)n1 | inconclusive: 13.1 µM [inhibitor, single point]
7 | Cc1cc(S(=O)(=O)NCCCN2CCOCC2)ccc1Br | inactive
8 | Cc1ccc(C)c(S(=O)(=O)Nc2ccc(S(=O)(=O)Nc3onc(C)c3C)cc2)c1 | inconclusive: 0.415 µM [inhibitor, full curve, poor fit]
9 | NC(N)=Nc1nc(C2COc3ccccc3O2)cs1 (stereo unspecified) | inactive
10 | COc1ccc(CNc2nc3ccccc3n2CCN2CCOCC2)cc1 | inconclusive: 4.15 µM [inhibitor, full curve, poor fit]
11 | O=C(Nc1ccccc1)N1CCCN(c2ccc(C(F)(F)F)cn2)CC1 | inactive
12 | O=C(C1CCN(S(=O)(=O)c2cccs2)CC1)N1CCN(c2ccccc2O)CC1 | active: 7.38 µM
13 | Cc1ccc(-c2nc3cccnc3o2)cc1NC(=O)COc1ccc(Cl)cc1C | inconclusive: 4.15 µM [inhibitor, single point]
14 | CC(C)n1c(N2CCN(S(=O)(=O)c3cccc([N+](=O)[O-])c3)CC2)nc2ccccc21 | inactive
15 | O=C(NCc1ccccc1)C12CC3CC(CC(C3)C1)C2 | inactive
16 | CCCn1c(SCC(=O)c2c(C)[nH]c(C)c2C(=O)OCC)nc2ccccc21 | inconclusive: 10.4 µM [inhibitor, partial curve, poor fit]
17 | CCc1ccc(-c2cc(C)no2)cc1S(=O)(=O)NCCc1ccc(OC)c(OC)c1 | active: 11.7 µM
18 | COc1ccc(C2CC(c3ccccc3)n3nnnc3N2)cc1 (stereo unspecified) | inactive
20 | COCc1ccc(C(=O)N2CCCC(C(=O)c3cc(F)ccc3F)C2)s1 (stereo unspecified) | inconclusive: 13.1 µM [inhibitor, partial curve]
21 | CCOC(=O)c1ccc(CSC(=N)N)o1 | inactive
22 | CC(=O)c1ccc(NC(=O)COC(=O)c2c3c(nc4ccccc24)/C(=C\c2cccs2)CCC3)cc1 | inconclusive: 18.5 µM [inhibitor, single point]
23 | Cc1cc2nc3n(c2cc1C)CC1CC(C(=O)NCCC(C)C)N(C)C31 (stereo unspecified) | inactive
24 | COc1ccc(/C(C)=N/NC(=S)Nc2cc(C)ccc2C)cc1 | inconclusive: 18.5 µM [inhibitor, single point]
25 | O=C(O)CCCCCCCCCCCNC(=O)NC12CC3CC(CC(C3)C1)C2 | active: 2.08 µM
26 | COc1ccc2cc(CN(CC3CCCO3)S(=O)(=O)c3ccccc3Cl)c(=O)[nH]c2c1 (stereo unspecified) | inconclusive: 10.4 µM [inhibitor, single point]

A few values from the results shown:
Potency with Cc1csc(NC(=O)CCC(=O)N(CC(=O)NC2CCCC2)c2ccccc2)n1 reads inconclusive: 13.1 µM [inhibitor, single point]
Potency with CCOC(=O)c1ccc(CSC(=N)N)o1 reads inactive
Potency with Oc1ccccc1N=Nc1nc(-c2ccccc2)c(-c2ccccc2)[nH]1 reads active: 2.08 µM

(more compounds)

Row | Structure (SMILES) | Potency
27 | COc1ccccc1C(=O)Nc1sc2c(c1C(N)=O)CCCC2 | inconclusive: 2.33 µM [inhibitor, partial curve, poor fit]
29 | CC1CCC2C(=O)N(c3ccc(C(=O)NCc4ccccc4)cc3)C(=O)C2C1 (stereo unspecified) | inactive
30 | CCCn1nnnc1NCc1cccc(OC)c1 | inactive
31 | Cc1cccc(N2C(=O)c3cccc4c(N(C)CCO)ccc(c34)C2=O)c1 | active: 5.86 µM
32 | C/C(CC(=O)Nc1cccc2c1CCCC2)=N\NC(=O)c1cccc2ccccc12 | active: 13.1 µM
33 | CCn1c(=O)c(C(=O)Nc2ccc(C)cc2C)c(O)c2ccccc21 | inactive
34 | COc1ccc(S(=O)(=O)NCc2ccc3c(c2)OCO3)cc1OC | active: 1.17 µM
35 | O=C(Nc1ccc(N2CCOCC2)cc1N1CCOCC1)c1ccc(Cl)cc1 | inconclusive: 10.4 µM [inhibitor, single point]
36 | CC(=O)c1nc(N2C(=O)CC(Cc3ccccc3)C2=O)sc1C (stereo unspecified) | inactive
37 | COc1ccc(C)cc1N(CC(=O)NCCN1CCOCC1)S(=O)(=O)c1ccccc1 | inconclusive: 11.7 µM [inhibitor, single point]
38 | O=C(CSc1nncs1)Nc1ccc2c(c1)OCCO2 | inactive
39 | CCN(CC)c1ccc(CNc2nc3ccccc3n2CC)cc1 | inactive
40 | CN(C)c1ccc(C(C(=O)NCc2ccccc2)N(Cc2ccco2)C(=O)c2snc(C(N)=O)c2N)cc1 (stereo unspecified) | inconclusive: 11.7 µM [inhibitor, single point]
41 | Nc1[nH]nc2nc(NCc3ccccc3)c3c(c12)CCN(Cc1ccccc1)C3 | inconclusive: 11.7 µM [inhibitor, single point]
42 | COc1ccc(/C=N/n2cnnc2)cc1COc1ccccn1 | active: 2.08 µM
43 | CCn1nnnc1SCC(=O)Nc1nc(C)c(C)s1 | inconclusive: 18.5 µM [inhibitor, single point]
44 | O=C(COC(=O)/C=C/c1ccc(OC(F)F)cc1)Nc1ccc(S(=O)(=O)N2CCCC2)cc1 | inactive
45 | N#CC1(NC(=O)COC(=O)c2nccnc2N)CCCCC1 | inactive
46 | Cc1ccc(S(=O)(=O)N2CCC(=O)N(CCOCc3ccc(C(F)(F)F)cc3)CC2)cc1 | inconclusive: 9.28 µM [inhibitor, partial curve, poor fit]
47 | O=C(c1ccoc1)N1CCC(CO)(CCc2ccccc2)CC1 | active: 11.7 µM
48 | CCC(=O)NC(=S)Nc1cccc(Cl)c1N1CCCCC1 | active: 7.38 µM
49 | COc1ccc(N2CCN(C(=O)CN(C)S(=O)(=O)c3ccc4c(c3)c(=O)n(C)c(=O)n4C)CC2)cc1 | inconclusive: 18.5 µM [inhibitor, single point]
50 | OCCNc1nc(Cl)nc(NCc2ccco2)n1 | inconclusive: 0.415 µM [inhibitor, full curve, poor fit]
51 | COc1ccccc1N1CCN(CCCCOc2c(OC)cccc2OC)CC1 | inactive
52 | CCN(C(=O)CSc1nnc(SC(C)C)s1)C1CCS(=O)(=O)C1 (stereo unspecified) | inconclusive: 13.1 µM [inhibitor, single point]

Row | Structure (SMILES) | Potency
53 | Cc1c(OC(C)C(=O)NCC(O)c2ccccc2)ccc2c3c(c(=O)oc12)CCC3 (stereo unspecified) | active: 10.4 µM
54 | COC(=O)c1ccc(-c2cc(C(=O)O)c3cc4c(cc3n2)OCCO4)cc1 | inconclusive: 13.1 µM [inhibitor, partial curve, poor fit]
55 | CCC1=NN(C(=O)c2ccccc2O)C(O)(c2ccccc2)C1 (stereo unspecified) | inconclusive: 18.5 µM [inhibitor, single point]
56 | CCOc1ccc(N(CC(=O)NCc2ccco2)S(=O)(=O)c2ccc(OC)c(OC)c2)cc1 | inactive
57 | Cc1ccc(S(=O)(=O)N(C)C)cc1NC(=O)c1cc(S(=O)(=O)N2CCCCC2)ccc1N1CCOCC1 | inconclusive: 5.86 µM [inhibitor, partial curve]
58 | Cc1cccc(CN2CCC(C(=O)Nc3ccc(-n4nc(C)cc4C)cc3)CC2)n1 | inconclusive: 20.8 µM [inhibitor, partial curve, poor fit]
59 | CCN(CC)CCn1c2c(c(SCC(=O)Nc3ccc(C)c(F)c3)nc1=O)CCCC2 | inconclusive: 9.28 µM [inhibitor, single point]
60 | O=C(CSc1nc(O)cc(=O)[nH]1)N1c2ccccc2Sc2ccccc21 | inconclusive: 13.1 µM [inhibitor, single point]
61 | COc1cccc(CC(=O)Nc2cc(S(=O)(=O)N3CCOCC3)ccc2OC)c1 | inconclusive: 11.7 µM [inhibitor, single point]
62 | O=C(NC1CCN(C(=O)N2c3ccccc3Sc3ccccc32)CC1)c1ccccc1F | inconclusive: 0.0415 µM [inhibitor, full curve, poor fit]
63 | COc1cccc(-c2onc3ccc(C(=O)/C=C/N(C)C)cc23)c1 | inconclusive: 18.5 µM [inhibitor, single point]
64 | CCOC(=O)Cc1c(C)nc(SC)[nH]c1=O | inactive
65 | CC1CCCCC1NC(=O)C1CCN(S(=O)(=O)N2CCOCC2)CC1 (stereo unspecified) | inconclusive: 0.828 µM [inhibitor, full curve, poor fit]
66 | CCOC(=O)c1sc(=NC(=O)c2ccccc2)n(C)c1C | inactive
67 | COCCCNCC1C(Oc2ccc(Cl)cc2)C(=O)N1c1ccccc1C (stereo unspecified) | inconclusive: 3.29 µM [inhibitor, single point]
68 | COC(=O)c1[nH]c2c(c1C)C(=O)CC(c1ccc(OC)cc1)C2 (stereo unspecified) | inactive
69 | Fc1cccc(Cc2noc(CN3CCN(c4cnccn4)CC3)n2)c1 | inconclusive: 11.7 µM [inhibitor, partial curve]
70 | O=C(COc1ccccc1)N=C1SC2CS(=O)(=O)CC2N1Cc1ccccc1 (stereo unspecified) | active: 13.1 µM
71 | COc1ccccc1Nc1ccc2nonc2c1[N+](=O)[O-] | inactive
72 | COC(=O)c1ccc(N2CCN(S(=O)(=O)c3ccccc3)CC2)c([N+](=O)[O-])c1 | inconclusive: 18.5 µM [inhibitor, single point]
73 | c1ccc(-c2nc(NCC3CCCO3)c3ccccc3n2)nc1 (stereo unspecified) | inactive
74 | CCOc1ccc(Cc2nnc(SCC(=O)Nc3ccc(OC)cc3)n(N)c2=O)cc1 | inconclusive: 0.828 µM [inhibitor, partial curve, poor fit]
75 | COc1ccc(OCCn2c(C)c(/C=N/n3cnnc3)c3ccccc32)cc1 | active: 11.7 µM
76 | O=C(c1ccccc1)c1ccc(OCC(O)CN2CCN(S(=O)(=O)N3CCCCC3)CC2)cc1 (stereo unspecified) | active: 5.22 µM

— PubChem BioAssay AID504834 (National Center for Advancing Translational Sciences (NCATS), 2011)
